Here are results for five molecules from paper PMC12915084, “A dsRNA Viral Transcriptional Regulator Evades Innate Immunity by Hijacking Host CoTranscription Factor DHX9”.

Chains of the proteins cited; added tags and fusions are not shown.
UniProt P06748: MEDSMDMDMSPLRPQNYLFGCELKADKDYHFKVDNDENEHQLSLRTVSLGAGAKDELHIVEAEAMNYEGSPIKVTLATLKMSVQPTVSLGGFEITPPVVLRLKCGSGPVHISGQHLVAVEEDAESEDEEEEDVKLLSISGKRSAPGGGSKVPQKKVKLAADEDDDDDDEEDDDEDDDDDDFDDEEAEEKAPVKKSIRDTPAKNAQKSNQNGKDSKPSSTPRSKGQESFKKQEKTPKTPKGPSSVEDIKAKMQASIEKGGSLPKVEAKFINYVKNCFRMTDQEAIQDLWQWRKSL
UniProt P78527: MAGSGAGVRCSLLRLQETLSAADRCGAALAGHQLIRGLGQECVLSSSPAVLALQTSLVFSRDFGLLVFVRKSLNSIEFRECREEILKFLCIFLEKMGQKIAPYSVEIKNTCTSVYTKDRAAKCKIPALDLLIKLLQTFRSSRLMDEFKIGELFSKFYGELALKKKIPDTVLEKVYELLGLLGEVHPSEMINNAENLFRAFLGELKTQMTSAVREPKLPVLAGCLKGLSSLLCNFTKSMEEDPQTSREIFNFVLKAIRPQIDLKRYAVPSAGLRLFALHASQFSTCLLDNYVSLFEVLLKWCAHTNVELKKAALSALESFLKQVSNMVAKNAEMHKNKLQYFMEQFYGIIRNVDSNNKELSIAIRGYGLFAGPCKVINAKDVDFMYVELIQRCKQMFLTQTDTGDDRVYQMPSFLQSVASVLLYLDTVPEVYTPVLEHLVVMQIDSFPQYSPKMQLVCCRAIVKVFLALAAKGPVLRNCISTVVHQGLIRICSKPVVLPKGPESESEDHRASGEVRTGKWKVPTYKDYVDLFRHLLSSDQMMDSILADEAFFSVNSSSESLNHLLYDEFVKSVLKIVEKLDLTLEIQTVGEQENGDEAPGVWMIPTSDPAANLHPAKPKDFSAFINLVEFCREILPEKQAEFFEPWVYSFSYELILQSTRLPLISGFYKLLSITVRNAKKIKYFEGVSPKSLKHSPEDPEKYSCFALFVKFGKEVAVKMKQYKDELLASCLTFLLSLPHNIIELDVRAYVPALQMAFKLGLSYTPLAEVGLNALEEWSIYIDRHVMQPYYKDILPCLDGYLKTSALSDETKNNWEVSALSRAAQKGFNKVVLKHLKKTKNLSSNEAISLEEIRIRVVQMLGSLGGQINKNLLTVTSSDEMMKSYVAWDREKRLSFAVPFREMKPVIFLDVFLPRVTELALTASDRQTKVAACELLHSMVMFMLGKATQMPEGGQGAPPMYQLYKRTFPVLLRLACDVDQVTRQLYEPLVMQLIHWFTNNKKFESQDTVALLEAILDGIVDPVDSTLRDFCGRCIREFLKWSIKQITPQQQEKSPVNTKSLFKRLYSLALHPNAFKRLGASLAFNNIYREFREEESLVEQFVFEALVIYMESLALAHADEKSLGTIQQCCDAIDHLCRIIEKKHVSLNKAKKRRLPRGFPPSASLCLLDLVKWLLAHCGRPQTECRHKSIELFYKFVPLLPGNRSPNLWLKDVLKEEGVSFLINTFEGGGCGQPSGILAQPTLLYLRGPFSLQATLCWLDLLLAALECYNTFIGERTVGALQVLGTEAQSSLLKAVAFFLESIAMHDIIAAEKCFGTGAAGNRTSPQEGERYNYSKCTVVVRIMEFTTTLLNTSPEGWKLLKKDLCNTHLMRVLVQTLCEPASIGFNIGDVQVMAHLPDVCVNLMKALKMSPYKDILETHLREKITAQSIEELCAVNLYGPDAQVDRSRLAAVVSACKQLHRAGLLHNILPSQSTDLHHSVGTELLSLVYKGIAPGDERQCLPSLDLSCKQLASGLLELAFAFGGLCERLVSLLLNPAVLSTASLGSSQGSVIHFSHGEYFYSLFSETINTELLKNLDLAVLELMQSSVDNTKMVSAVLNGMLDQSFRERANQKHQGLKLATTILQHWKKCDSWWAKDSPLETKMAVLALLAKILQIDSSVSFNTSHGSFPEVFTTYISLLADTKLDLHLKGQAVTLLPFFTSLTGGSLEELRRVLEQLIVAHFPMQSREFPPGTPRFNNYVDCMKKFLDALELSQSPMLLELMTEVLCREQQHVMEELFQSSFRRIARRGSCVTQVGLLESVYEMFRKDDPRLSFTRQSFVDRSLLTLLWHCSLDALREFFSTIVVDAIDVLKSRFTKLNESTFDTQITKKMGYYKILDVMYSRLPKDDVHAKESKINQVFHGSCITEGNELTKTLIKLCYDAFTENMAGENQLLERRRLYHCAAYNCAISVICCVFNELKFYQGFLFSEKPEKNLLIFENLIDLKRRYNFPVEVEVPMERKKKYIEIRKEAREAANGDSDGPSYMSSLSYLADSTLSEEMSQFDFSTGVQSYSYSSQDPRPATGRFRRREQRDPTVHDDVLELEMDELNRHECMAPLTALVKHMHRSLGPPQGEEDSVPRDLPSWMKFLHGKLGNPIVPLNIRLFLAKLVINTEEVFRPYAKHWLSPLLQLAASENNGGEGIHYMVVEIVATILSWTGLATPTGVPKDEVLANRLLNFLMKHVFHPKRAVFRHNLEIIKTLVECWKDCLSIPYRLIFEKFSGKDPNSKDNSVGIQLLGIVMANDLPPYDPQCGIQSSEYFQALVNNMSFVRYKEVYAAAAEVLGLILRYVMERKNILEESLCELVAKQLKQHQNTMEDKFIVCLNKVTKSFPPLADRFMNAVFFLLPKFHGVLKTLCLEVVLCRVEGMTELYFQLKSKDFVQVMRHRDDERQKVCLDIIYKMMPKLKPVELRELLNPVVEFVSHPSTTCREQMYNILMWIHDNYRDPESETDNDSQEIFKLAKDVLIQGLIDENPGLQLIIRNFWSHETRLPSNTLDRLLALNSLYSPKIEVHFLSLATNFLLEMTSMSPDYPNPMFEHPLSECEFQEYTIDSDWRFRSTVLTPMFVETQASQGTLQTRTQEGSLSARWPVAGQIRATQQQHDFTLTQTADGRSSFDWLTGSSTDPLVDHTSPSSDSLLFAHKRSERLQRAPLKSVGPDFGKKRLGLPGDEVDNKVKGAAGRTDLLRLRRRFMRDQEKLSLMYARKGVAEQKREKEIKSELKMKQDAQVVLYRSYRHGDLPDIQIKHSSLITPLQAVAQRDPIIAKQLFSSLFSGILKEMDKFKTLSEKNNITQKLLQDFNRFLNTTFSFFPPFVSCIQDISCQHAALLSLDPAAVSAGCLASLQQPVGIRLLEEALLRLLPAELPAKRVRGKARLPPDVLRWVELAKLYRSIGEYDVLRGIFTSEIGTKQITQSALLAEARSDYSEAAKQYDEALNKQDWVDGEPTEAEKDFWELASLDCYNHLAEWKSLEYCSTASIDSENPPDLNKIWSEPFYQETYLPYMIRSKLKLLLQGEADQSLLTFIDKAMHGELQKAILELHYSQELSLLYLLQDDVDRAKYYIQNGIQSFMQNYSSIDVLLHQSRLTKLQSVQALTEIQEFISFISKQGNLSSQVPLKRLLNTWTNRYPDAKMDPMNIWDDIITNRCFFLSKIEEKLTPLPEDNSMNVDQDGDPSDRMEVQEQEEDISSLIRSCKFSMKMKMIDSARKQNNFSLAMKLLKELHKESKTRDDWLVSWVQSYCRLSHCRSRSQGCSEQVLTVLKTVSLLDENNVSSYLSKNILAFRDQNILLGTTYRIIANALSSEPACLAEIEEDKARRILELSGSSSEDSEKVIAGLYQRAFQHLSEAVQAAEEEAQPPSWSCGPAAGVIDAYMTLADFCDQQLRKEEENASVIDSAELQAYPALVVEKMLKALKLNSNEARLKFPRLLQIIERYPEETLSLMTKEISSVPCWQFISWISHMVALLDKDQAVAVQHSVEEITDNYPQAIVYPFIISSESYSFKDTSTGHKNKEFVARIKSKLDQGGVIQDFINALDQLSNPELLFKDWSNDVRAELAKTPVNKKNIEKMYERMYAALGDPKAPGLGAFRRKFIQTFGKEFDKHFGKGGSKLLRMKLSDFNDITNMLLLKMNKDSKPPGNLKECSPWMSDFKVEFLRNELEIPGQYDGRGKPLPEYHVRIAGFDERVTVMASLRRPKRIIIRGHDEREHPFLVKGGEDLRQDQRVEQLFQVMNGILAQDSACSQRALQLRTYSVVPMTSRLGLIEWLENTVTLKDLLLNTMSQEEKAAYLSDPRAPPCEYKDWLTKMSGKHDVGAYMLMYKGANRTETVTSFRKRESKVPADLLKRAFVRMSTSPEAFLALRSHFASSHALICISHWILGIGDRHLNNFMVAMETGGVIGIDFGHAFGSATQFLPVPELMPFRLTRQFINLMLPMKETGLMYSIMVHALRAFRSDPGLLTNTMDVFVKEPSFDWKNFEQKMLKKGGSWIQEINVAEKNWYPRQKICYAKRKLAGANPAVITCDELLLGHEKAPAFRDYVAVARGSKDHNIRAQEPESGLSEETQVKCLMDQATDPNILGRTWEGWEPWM
UniProt Q12905: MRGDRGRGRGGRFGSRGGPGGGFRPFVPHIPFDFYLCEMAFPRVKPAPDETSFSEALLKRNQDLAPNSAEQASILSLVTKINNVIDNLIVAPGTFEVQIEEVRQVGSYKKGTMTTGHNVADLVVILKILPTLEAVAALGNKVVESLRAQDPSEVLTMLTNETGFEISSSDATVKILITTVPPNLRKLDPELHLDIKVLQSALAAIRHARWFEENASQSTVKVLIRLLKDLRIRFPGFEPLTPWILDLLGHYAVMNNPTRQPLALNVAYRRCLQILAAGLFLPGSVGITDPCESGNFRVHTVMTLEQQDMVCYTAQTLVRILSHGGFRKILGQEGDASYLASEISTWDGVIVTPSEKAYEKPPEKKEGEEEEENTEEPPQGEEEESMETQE

Results are given in words; binding and its absence hold for the method and conditions named. In cells and extracts the contact can be indirect. Here binding means that the protein was enriched with, or labelled near, the bait; the list need not be complete.

In the assay the target is pNTAP-σ3 (outer capsid protein σ3 of the T1L REOV strain in the pNTAP-A vector) (Mammalian orthoreovirus (REOV), strain T1L) (UniProt P07939). Briefly: affinity purification with mass spectrometry; tandem affinity purification of pNTAP-σ3 from transfected cells (streptavidin resin, then calmodulin resin), LC-MS/MS; pNTAP empty vector as control.

On to NPM1 (from UniProt P06748 1-294), for which the binding result is reported as “binds”.

Regarding PRKDC (from UniProt P78527 1-4128), the binding result is “binds”.

For ILF2 (from UniProt Q12905 1-390), the binding result was “binds”.

B1: ILF3 (protein, UniProt Q12906 1-894)
chain: MRPMRIFVNDDRHVMAKHSSVYPTQEELEAVQNMVSHTERALKAVSDWIDEQEKGSSEQAESDNMDVPPEDDSKEGAGEQKTEHMTRTLRGVMRVGLVAKGLLLKGDLDLELVLLCKEKPTTALLDKVADNLAIQLAAVTEDKYEILQSVDDAAIVIKNTKEPPLSLTIHLTSPVVREEMEKVLAGETLSVNDPPDVLDRQKCLAALASLRHAKWFQARANGLKSCVIVIRVLRDLCTRVPTWGPLRGWPLELLCEKSIGTANRPMGAGEALRRVLECLASGIVMPDGSGIYDPCEKEATDAIGHLDRQQREDITQSAQHALRLAAFGQLHKVLGMDPLPSKMPKKPKNENPVDYTVQIPPSTTYAITPMKRPMEEDGEEKSPSKKKKKIQKKEEKAEPPQAMNALMRLNQLKPGLQYKLVSQTGPVHAPIFTMSVEVDGNSFEASGPSKKTAKLHVAVKVLQDMGLPTGAEGRDSSKGEDSAEETEAKPAVVAPAPVVEAVSTPSAAFPSDATAEQGPILTKHGKNPVMELNEKRRGLKYELISETGGSHDKRFVMEVEVDGQKFQGAGSNKKVAKAYAALAALEKLFPDTPLALDANKKKRAPVPVRGGPKFAAKPHNPGFGMGGPMHNEVPPPPNLRGRGRGGSIRGRGRGRGFGGANHGGYMNAGAGYGSYGYGGNSATAGYSQFYSNGGHSGNASGGGGGGGGGSSGYGSYYQGDNYNSPVPPKHAGKKQPHGGQQKPSYGSGYQSHQGQQQSYNQSPYSNYGPPQGKQKGYNHGQGSYSYSNSYNSPGGGGGSDYNYESKFNYSGSGGRSGGNSYGSGGASYNPGSHGGYGGGSGGGSSYQGKQGGYSQSNYNSPGSGQNYSGPPSSYQSSQGGYGRNADHSMNYQYR
Take B1: the binding result is “binds”.

B2: HNRNPL (protein, UniProt P14866 1-589)
chain: MSRRLLPRAEKRRRRLEQRQQPDEQRRRSGAMVKMAAAGGGGGGGRYYGGGSEGGRAPKRLKTDNAGDQHGGGGGGGGGAGAAGGGGGGENYDDPHKTPASPVVHIRGLIDGVVEADLVEALQEFGPISYVVVMPKKRQALVEFEDVLGACNAVNYAADNQIYIAGHPAFVNYSTSQKISRPGDSDDSRSVNSVLLFTILNPIYSITTDVLYTICNPCGPVQRIVIFRKNGVQAMVEFDSVQSAQRAKASLNGADIYSGCCTLKIEYAKPTRLNVFKNDQDTWDYTNPNLSGQGDPGSNPNKRQRQPPLLGDHPAEYGGPHGGYHSHYHDEGYGPPPPHYEGRRMGPPVGGHRRGPSRYGPQYGHPPPPPPPPEYGPHADSPVLMVYGLDQSKMNCDRVFNVFCLYGNVEKVKFMKSKPGAAMVEMADGYAVDRAITHLNNNFMFGQKLNVCVSKQPAIMPGQSYGLEDGSCSYKDFSESRNNRFSTPEQAAKNRIQHPSNVLHFFNAPLEVTEENFFEICDELGVKRPSSVKVFSGKSERSSSGLLEWESKSDALETLGFLNHYQMKNPNGPYPYTLKLCFSTAQHAS
Turning to B2, the binding entry is reported as “binds”.
